# In the supplement of paper PMC3334620:
# Whole data set: some 33,000 sequences, median “E-score (-0.5 to 0.5)” near -8e-05, cut for the highest 2% near 0.23. Some of the results follow.
# Molecular target: T1, Nrg2 (UniProt P38082)
# T1 sequence: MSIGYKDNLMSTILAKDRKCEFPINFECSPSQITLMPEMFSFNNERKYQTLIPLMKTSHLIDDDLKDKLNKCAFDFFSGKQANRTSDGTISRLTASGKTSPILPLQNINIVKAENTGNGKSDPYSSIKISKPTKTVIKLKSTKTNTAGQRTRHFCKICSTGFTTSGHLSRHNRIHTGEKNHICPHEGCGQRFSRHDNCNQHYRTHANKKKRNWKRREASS
# Test: PBM E-score (8-mer binding enrichment) (E-score (-0.5 to 0.5)); higher = stronger / more preferred TF binding
# Conditions: protein concentration: 100 nM; construct: GST-full length
# In short: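 E-scores (a modified Wilcoxon-Mann-Whitney statistic) were assigned by the Universal PBM Analysis Suite to every ungapped eight-base word pooled with its reverse complement. The input came from universal all-10-mer Agilent arrays made double-stranded by primer extension and probed with GST-tagged yeast transcription factors at about 100-200 nM. Fluorescent anti-GST detected bound protein, and masliner normalised the scans.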
row,Sequence,PBM E-score
1,AATCCGGG,0.0178
2,CGTCACGA,-0.0766
3,CTCTCCCC,-0.223
4,AGGCACTC,-0.127
5,GCTTTTCA,-0.0478
6,CGGCTACA,-0.178
7,AATAGATA,0.22
8,AATGTTGT,-0.029
9,CTCGCGAG,0.257
10,GTCACGTA,-0.249
11,CCGCTGCG,-0.14
12,ACTGGTTC,0.0894
13,ACTATTAT,0.105
14,GGAGCCAC,-0.246
15,ATCGAGCA,0.0824
16,ATGGTCTC,-0.0514
17,CAAATGGG,0.0248
18,CCAACCAG,-0.0699
19,ATACGTAA,-0.0423
20,CGCAGGCA,-0.0766
21,CACGCCGA,0.0413
22,CTCTCTAC,0.119
23,ATGGGTGA,0.00137
24,CCGACACG,-0.0707
25,GTTCCACA,-0.101

row,Sequence,PBM E-score
1,CGGTCGCA,-0.018
2,GGGCACCA,-0.139
3,AAAAAATA,0.0567
4,CGGCGAAG,-0.0143
5,GTATTGAA,0.153
6,TATACCAA,0.13
7,AGTTCTCA,0.155
8,TCTGGCAA,-0.101
9,GCTATCAA,0.147
10,TGTCTCAA,-0.0475
11,GTCTACCA,-0.147
12,AACAAATC,0.0564
13,CGCGCGTA,0.133
14,AGGTTATG,0.0604
15,GATCTGGA,0.0104
16,AGCTCGAT,0.156
17,GAAGCTAA,-0.00529
18,CTGTAAAA,-0.00171
19,GCTACTCC,-0.0599
20,ACAGTATA,0.0828
21,GGACGTCA,0.00109
22,GGCATCTA,0.111
23,ACAAACTA,0.0968
24,ATTCTTAG,-0.0242
25,ACACCCTG,0.223

# 45 entries from above, as tab-separated lines:
row	Sequence	PBM E-score
3	CTCTCCCC	-0.223
4	AGGCACTC	-0.127
5	GCTTTTCA	-0.0478
6	CGGCTACA	-0.178
7	AATAGATA	0.22
8	AATGTTGT	-0.029
9	CTCGCGAG	0.257
10	GTCACGTA	-0.249
11	CCGCTGCG	-0.14
12	ACTGGTTC	0.0894
13	ACTATTAT	0.105
14	GGAGCCAC	-0.246
15	ATCGAGCA	0.0824
16	ATGGTCTC	-0.0514
17	CAAATGGG	0.0248
19	ATACGTAA	-0.0423
20	CGCAGGCA	-0.0766
22	CTCTCTAC	0.119
23	ATGGGTGA	0.00137
24	CCGACACG	-0.0707
25	GTTCCACA	-0.101
1	CGGTCGCA	-0.018
2	GGGCACCA	-0.139
3	AAAAAATA	0.0567
4	CGGCGAAG	-0.0143
5	GTATTGAA	0.153
6	TATACCAA	0.13
7	AGTTCTCA	0.155
8	TCTGGCAA	-0.101
10	TGTCTCAA	-0.0475
11	GTCTACCA	-0.147
12	AACAAATC	0.0564
13	CGCGCGTA	0.133
14	AGGTTATG	0.0604
15	GATCTGGA	0.0104
16	AGCTCGAT	0.156
17	GAAGCTAA	-0.00529
18	CTGTAAAA	-0.00171
19	GCTACTCC	-0.0599
20	ACAGTATA	0.0828
21	GGACGTCA	0.00109
22	GGCATCTA	0.111
23	ACAAACTA	0.0968
24	ATTCTTAG	-0.0242
25	ACACCCTG	0.223

# (continued)

row,Sequence,PBM E-score
1,CCCCCGTC,-0.42
2,AATTCTCG,-0.0395
3,GGCATGAA,0.0895
4,AATGTAAT,0.139
5,AGAACGCC,-0.018
6,CCGCGTCC,-0.0349
7,AATGCAAA,0.244
8,GATTAACC,-0.222
9,ACCCCTCC,-0.248
10,AAGCCACT,-0.0519
11,CTAGCAAA,0.0319
12,AAGGAGAT,-0.0709
13,ACGAGACT,-0.139
14,CATTCGAC,0.049
15,CCGCAGGC,-0.0603
16,ACCCTACA,0.0936
17,AATTGGGC,-0.0483
18,CCTAGTGC,-0.0328
19,AAGCAGAA,0.117
20,GAAAGCTA,0.0593
21,GATTTTCA,-0.0417
22,AGGGGTAG,-0.0372
23,AGACAGTA,0.0173
24,AACGTCTG,0.0137
25,AATATCAT,0.0977

row,Sequence,PBM E-score
1,TCCACAAA,-0.0625
2,ACTCAACT,0.179
3,AATCCTAA,-0.0818
4,ACGATTTA,0.208
5,GGAATCCA,0.00282
6,GGTAACGA,-0.00769
7,ACGTATGA,0.0475
8,CTACGGCC,-0.0805
9,TGAATGCA,0.0182
10,CGTTCCCC,-0.0326
11,CCGGAATC,0.0538
12,CGGGGCAC,-0.111
13,CACCCACA,0.1
14,CCACGGGA,-0.00794
15,GATTATCC,0.043
16,TAGACCCA,0.0353
17,AGGTACAC,-0.073
18,AGGAAGGG,-0.192
19,AAAAAAAA,0.142
20,ACTGTAGC,-0.18
21,AATCTTGG,0.0117
22,CGGCCGTA,0.00647
23,CTCTAGCA,-0.216
24,CCGCCAGG,-0.204
25,CAGTGAGC,-0.0602

row,Sequence,PBM E-score
1,TCCTCCCA,-0.143
2,ATGGTACA,0.0537
3,AGGGGTTG,0.216
4,GAAGAAGC,-0.136
5,TGCGACAA,0.0655
6,ACCCGAAC,-0.0389
7,CGCCCCCA,-0.194
8,AACGCGGA,0.0806
9,GCCGGGGA,-0.0136
10,GGAGCCAA,-0.0987
11,ATAGCATA,0.161
12,GCTACTAA,-0.021
13,ATTAGGGG,0.185
14,AAGCGTGG,0.0382
15,AGAACGCT,-0.13
16,GACCTACA,0.0165
17,AAGAAATT,0.125
18,GACACGGA,0.0872
19,CCAATACG,-0.165
20,CTTACCCA,0.0294
21,TTCCAGAA,0.0408
22,AGGATCAG,-0.0684
23,GAGATACA,0.296
24,CTGCAATA,0.0882
25,ACTTCAGC,-0.206

row,Sequence,PBM E-score
1,GATAGGAA,-0.00607
2,GGATTACC,-0.0358
3,TGTGACAA,-0.073
4,GTTTCCTA,0.0716
5,ACAGCAAC,-0.00103
6,ATCCTAAG,-0.0575
7,AAAACGGA,0.0164
8,CATTGTAC,-0.0345
9,CGTATCAC,0.0413
10,CATGGTAG,0.00197
11,AAAGACGT,0.0439
12,GATACAAA,0.18
13,CAGCGGGG,-0.118
14,GGGGTCGA,0.0645
15,ATTATCGA,-0.00721
16,CATCATAC,0.0351
17,GACTGAGC,-0.208
18,ACGAAGCA,0.0327
19,ATATCGAG,0.0478
20,AATGCTCT,-0.133
21,CCCTCCTA,-0.0642
22,GCAAATAC,0.042
23,AGAGTTAC,-0.161
24,CATTATAA,0.049
25,GCCTAGTA,-0.0125

row,Sequence,PBM E-score
1,GATGGAAC,0.0203
2,AATGTTTG,-0.018
3,ACAGTTGG,-0.111
4,AAGCATAG,-0.113
5,AACATGCT,-0.0356
6,GTAACGAA,0.0314
7,ACCGATTG,-0.0298
8,TAGACAGA,0.18
9,CGGGGCCC,0.221
10,AATTGTCA,0.15
11,CAATATTG,0.137
12,AGATTCAA,0.0745
13,CCCATACG,-0.0789
14,CGTATGCA,0.0707
15,AGAGAGGC,-0.285
16,AAAAGAGT,-0.0952
17,GAAAGCTC,-0.155
18,CAGCCAGA,-0.0868
19,GAGGGTCA,-0.227
20,GTACATGA,-0.0972
21,CAACGAGG,0.146
22,CATAAGCC,-0.132
